Measured values from PubChem BioAssay AID2685 (National Center for Advancing Translational Sciences (NCATS), 2010).
Several values for one entry are separate records, joined by “and”; a condition that tells them apart may be missing. Identical values can stand only once. This is one part of the list. Further columns of the screen follow, without active or inactive calls. Most of these compounds were active or inconclusive in the main read-out, so they are no random draw. Words in brackets tell the shape of the fitted curve; partial curves, single points and poor fits give uncertain potencies.

Test: qHTS Assay for Lipid Storage Modulators in Drosophila S3 Cells;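 on cell number change: cells counted by Cell Tracker Red CMTPX staining in the red channel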
Settings: BODIPY lipid droplet fluorescence, 18-24 h; for cell number change: measured here: cell count max response, cells fed with added oleic acid
Procedure, shortened: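 Drosophila S3 cells got compounds at several concentrations plus oleic acid (400 uM solution). Laser-scanning cytometry with 488 nm excitation read lipid droplets at 500-530 nm and cells at 575-640 nm. Percent activity was relative to 20 uM Triacsin C.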

[1] = measured here: lipid fluorescence (Fed channel) AC50, cells fed with added oleic acid
[2] = measured here: cell number channel AC50, cells fed with added oleic acid

Row | Compound | cell number change | AC50 [1] | AC50 [2]
1 | CCOc1ccc(C(=O)NCC(=O)N2CCc3ccccc3C2)cc1OCC | -0.0415% | 0.058 µM [falling, full curve, poor fit] | 
2 | Cc1nn(-c2nc3ccccc3n2Cc2ccccc2)c2c1C(=O)CC(C)(C)C2 | -16.5% | 7.31 µM [rising, single point] | 
3 | CCCc1nnc(N2C(=O)c3cccc4cccc(c34)C2=O)s1 |  | 23.1 µM [rising, partial curve] | 
4 | Cc1onc(-c2ccccc2)c1C(=O)N/N=C/c1cc2c(cc1Br)OCO2 | 38.6% | 1.16 µM [rising, full curve] | 3.26 µM [rising, full curve]
5 | CC(C)N1C/C(=C/c2ccsc2)C(=O)/C(=C/c2ccsc2)C1 |  | 13 µM [falling, partial curve] | 
6 | CCNc1nc(SCCOc2ccccc2)nc(N(C)C)n1 | 313% | 14.6 µM [rising, partial curve] | 7.31 µM [rising, partial curve]
7 | CC(=O)Nc1ccc(C(=O)CSc2nc3ccc(C)cc3[nH]2)cc1 | -50% | 29.1 µM [rising, single point] | 25.9 µM [falling, single point]
8 | CCOC(=O)c1nnn(-c2nonc2N)c1-c1ccc(Br)cc1 | -24.6% | 32.6 µM [falling, single point] | 
9 | Cc1[nH]c2ccc(-c3n[nH]c(=S)n3C)cc2c1C | -14.3% | 0.092 µM [rising, full curve, poor fit] | 
10 | CC(C)(C)c1ccc(-c2n[nH]c(=S)n2Cc2ccccc2)cc1 | -12.5% |  | 
11 | O=C(CSC1=Nc2ccccc2C2=NC(CC(=O)NCc3ccco3)C(=O)N12)NCc1ccco1 (stereo not given) |  | 0.58 µM [rising, single point] | 
12 | CC(=O)c1cccc(N2C(=NC(=O)C3CCCCC3)SC3CS(=O)(=O)CC32)c1 (stereo not given) | -19.8% | 0.461 µM [falling, full curve] | 
13 | Cc1sc2nc(SCC(=O)N(C)c3ccccc3)n(C)c(=O)c2c1C | -20% | 0.146 µM [falling, full curve] | 
14 | COC(=O)c1cc(S(=O)(=O)N2CCN(c3ccc(C(C)=O)cc3)CC2)cn1C |  | 29.1 µM [rising, single point] | 
15 | COC(=O)Cc1ccc(N(Cc2ccccc2F)S(=O)(=O)c2ccc(Br)cc2)cc1 | 0.989% | 6.51 µM [rising, single point] | 
16 | COc1ccc(/C=C(\NC(=O)c2cccs2)C(=O)Nc2ccccc2C)cc1OC | -73.8% | 0.731 µM [falling, full curve] | 1.03 µM [falling, full curve]
17 | CC(=O)c1c(C)[nH]c(C(=O)OCc2cccc(C)c2)c1C | 0.855% |  | 0.00411 µM [rising, full curve, poor fit]
18 | COc1ccc(-c2cc(-c3ccccc3)nc(SCC(=O)Nc3ncc(C)s3)c2C#N)cc1 | 21.2% | 0.13 µM [rising, full curve] | 0.259 µM [rising, partial curve, poor fit]
19 | Cc1ccc(Cn2nnc3c(=O)[nH]c(C4CCN(S(=O)(=O)/C=C/c5ccccc5)CC4)nc32)cc1 | 5.65% |  | 
20 | Cc1ccc(S(=O)(=O)N2CCCCC2)cc1C(=O)NCCCN1CCOCC1 | 16.2% |  | 
21 | O=C(Nc1cccc(Cl)c1)Nc1cccc(C(=O)O)c1 | -40.3% | 9.2 µM [falling, single point] | 29.1 µM [falling, single point]
22 | CC(C)(C)NC[C@H](O)COc1nsnc1N1CCOCC1 | -33.1% and 17.5% | 29.1 µM [falling, single point] and 651 nM [falling, full curve, poor fit] | 32.6 µM [falling, single point]
23 | Cc1ccc(/C=C2\SC(=S)N(CCC(=O)N3CCCCC3)C2=O)cc1 | -17.9% |  | 
24 | Cc1cc(C)nc(N2CCN(c3ccc(F)cc3)CC2)n1 | 30.2% | 29.1 µM [rising, single point] | 
25 | CCOc1cccc2sc(N(CCCN(C)C)C(=O)c3ccc(S(=O)(=O)N(C)CC4CCCO4)cc3)nc12 (stereo not given) | -39.9% | 0.58 µM [rising, single point] | 18.4 µM [falling, single point]
26 | CC(C)c1ccc(/C=N/n2c(COc3ccccc3)n[nH]c2=S)cc1 | -9.72% | 13 µM [falling, partial curve, poor fit] | 
27 | COC(=O)c1ccc(NC(=O)COc2ccc(S(=O)(=O)N3CCCCC3)cc2)cc1 | -31.4% | 0.146 µM [falling, full curve] | 0.517 µM [falling, full curve]
28 | Cc1ccc(S(=O)(=O)c2cn(C)c3cc(N4CCN(C)CC4)c(F)cc3c2=O)cc1 | 20.2% | 4.11 µM [falling, single point] | 

Row | Compound | cell number change | AC50 [1] | AC50 [2]
29 | CCCCn1c(=O)[nH]c(=O)c2c1nc(-c1ccccc1F)n2Cc1ccccc1 |  | 1.64 µM [falling, partial curve] | 
30 | COCc1c(C(=O)NCCOc2ccc(Cl)cc2)oc2ccccc12 | -15.4% | 1.03 µM [falling, full curve, poor fit] | 
31 | CC1CN(S(=O)(=O)c2cccc(C(=O)NCc3ccco3)c2)CC(C)O1 (stereo not given) | -27.3% |  | 
32 | CCc1nc2cc(CC(=O)O)ccc2o1 | 24.9% | 18.4 µM [rising, single point] | 
33 | CCCCn1c(/C=N/Nc2nc3ccccc3[nH]2)nc2ccccc21 | -10.7% | 6.51 µM [falling, partial curve] | 
34 | O=C(Nc1ccccn1)c1sc2cc([N+](=O)[O-])ccc2c1Cl | -11.1% | 6.51 µM [falling, single point] | 
35 | O=C(Cc1cccs1)N1CCN=C1SCc1ccccc1Cl | -16.3% | 0.731 µM [falling, single point] | 0.82 µM [falling, single point]
36 | CN(CC(=O)Nc1ccccc1C(F)(F)F)C(=O)c1ccc2c(=O)n3c(nc2c1)CCC3 | 1.44% | 29.1 µM [rising, single point] | 
37 | Cc1ccccc1OCC(=O)N(Cc1ccco1)c1c(N)n(Cc2ccccc2)c(=O)[nH]c1=O | -42.7% | 0.366 µM [falling, full curve, poor fit] | 16.4 µM [falling, partial curve]
38 | O=C(Nc1cc(Cl)ccn1)C1CCN(S(=O)(=O)c2cccs2)CC1 | -0.512% | 0.651 µM [rising, full curve, poor fit] | 
39 | COc1ccc(-n2ccc(=O)c3c2CCCC3=O)cc1 | 4.13% | 0.116 µM [rising, full curve, poor fit] | 
40 | O=C(CCCCCn1c(=S)[nH]c2ccc(N3CCOCC3)cc2c1=O)NCc1ccc2c(c1)OCO2 | -68.5% |  | 32.6 µM [falling, single point]
41 | COc1ccc(CCCNC(=O)C2CCC(=O)N(CCc3cccc(F)c3)C2)cc1 (stereo not given) | 8.8% | 1.64 µM [rising, partial curve, poor fit] | 
42 | COc1ccc(/C=C2\N=C(SC)NC2=O)cc1 | -76.7% | 0.231 µM [falling, full curve, poor fit] | 29.1 µM [falling, partial curve, poor fit]
43 | O=C(Nc1nc(-c2ccccn2)cs1)Nc1ccc(F)cc1F | 23.1% | 18.4 µM [falling, single point] | 0.0731 µM [rising, full curve, poor fit]
44 | CCCCCCNC(=O)C(C#N)c1nc2ccccc2nc1N1CCOCC1 (stereo not given) | -0.711% |  | 
45 | COc1cccc(C(=O)N2CCC(C(=O)NCc3ccco3)CC2)c1 | 24.6% | 1.3 µM [rising, full curve] | 0.58 µM [rising, full curve]
46 | Cc1ccc(C)c(OCCC(=O)OCC(=O)NC(=O)NC2CCCC2)c1 |  | 6.51 µM [falling, single point] | 
47 | O=C(NCc1ccccn1)C(=O)NCC1OCCCN1S(=O)(=O)c1cc(F)ccc1F (stereo not given) | -5.87% | 0.146 µM [rising, partial curve, poor fit] | 
48 | CN(CC(=O)Nc1cccc(F)c1)C(=O)Cn1c(=O)cnc2ccccc21 | -20.5% |  | 
49 | COc1ccc(OCCNC(=S)Nc2cccc3ccccc23)cc1 |  | 6.51 µM [rising, single point] | 1.64 µM [rising, partial curve, poor fit]
50 | COc1ccc(CNS(=O)(=O)c2ccc3c(c2)NC(=O)C(C)S3)cc1 (stereo not given) |  | 2.91 µM [rising, single point] | 
51 | CCCCCCCNC(=O)C1(CC2CC(c3cccc(Br)c3)=NO2)CCN(C(=O)OC(C)(C)C)CC1 (stereo not given) | 5.69% |  | 
52 | O=C(CCCCn1c(=O)c2ccccc2n(Cc2ccccc2F)c1=O)NC1CCN(Cc2ccccc2)CC1 | -29.4% | 0.82 µM [falling, full curve] | 1.64 µM [falling, full curve, poor fit]
53 | COc1ccc(C2C(C(=O)N3CCCC3)c3cc(OC)c(OC)cc3C(=O)N2C)cc1OC (stereo not given) |  |  | 3.66 µM [falling, partial curve, poor fit]
54 | CC1(C)Cc2c(sc(/N=C/N3CCCCCC3)c2C#N)C(C)(C)N1 | -48.2% |  | 29.1 µM [falling, single point]
55 | CCOC(=O)c1c(NC(=O)CSC2=NN3CCCC(=O)N=C3S2)sc2c1CCCCC2 | 32% | 8.2 µM [rising, partial curve] | 7.31 µM [rising, partial curve]
